Results deposited as PubChem BioAssay AID1259254 (NCATS, 2017)
In all, the deposit lists about 59,000 reagents; below is an unselected part. In the full data, about 1,550 (2.6%) got an active call. 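G2 share is only a proxy for re-replication; each gene was hit by three separate siRNAs, and active genes were retested.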 A number with no mark means an inactive call. Reagents against one gene are numbered here. Not all columns of the deposit are shown. Not given: the amount of reagent.

Screen: 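Gene knock-downs that lead to re-replication, shown by excess G2 DNA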 (primary screen)
Cells: human HCT116 colorectal cancer cells
Reagents: single siRNA against human genes
Duration: 3 days
Detection: 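Imaged Hoechst DNA stain sorts each cell into a cycle phase by DNA amount; per plate, G2 fraction set to 0% for non-targeting and 100% for GMNN siRNA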
Reading the numbers: G2 robust z-score and G2 cells, % of GMNN control: higher = more G2 cells, more excess DNA replication
Call rule: 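Active siRNAs have a G2 robust z of 5 or more median absolute deviations over the median, which in these data means about 38% or higher of GMNN control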

{"gene knocked down": "PHLPP1", "reagent no.": 1, "G2 robust z-score": -1.11, "G2 cells, % of GMNN control": -4.85}
{"gene knocked down": "PHLPP1", "reagent no.": 2, "G2 robust z-score": -0.438, "G2 cells, % of GMNN control": -0.116}
{"gene knocked down": "PHLPP1", "reagent no.": 3, "G2 robust z-score": -0.178, "G2 cells, % of GMNN control": 1.71}
{"gene knocked down": "KRTAP27-1", "reagent no.": 1, "G2 robust z-score": 0.733, "G2 cells, % of GMNN control": 8.12}
{"gene knocked down": "KRTAP27-1", "reagent no.": 2, "G2 robust z-score": 0.0333, "G2 cells, % of GMNN control": 3.2}
{"gene knocked down": "KRTAP27-1", "reagent no.": 3, "G2 robust z-score": -0.265, "G2 cells, % of GMNN control": 1.1}
{"gene knocked down": "PRDM5", "reagent no.": 1, "G2 robust z-score": -0.293, "G2 cells, % of GMNN control": 0.905}
{"gene knocked down": "PRDM5", "reagent no.": 2, "G2 robust z-score": 0.276, "G2 cells, % of GMNN control": 4.91}
{"gene knocked down": "PRDM5", "reagent no.": 3, "G2 robust z-score": -0.224, "G2 cells, % of GMNN control": 1.39}

The list goes on; the last 2 above are carried over.
{"gene knocked down": "PRDM5", "reagent no.": 2, "G2 robust z-score": 0.276, "G2 cells, % of GMNN control": 4.91}
{"gene knocked down": "PRDM5", "reagent no.": 3, "G2 robust z-score": -0.224, "G2 cells, % of GMNN control": 1.39}
{"gene knocked down": "RHBDD1", "reagent no.": 1, "G2 robust z-score": -0.587, "G2 cells, % of GMNN control": -1.16}
{"gene knocked down": "RHBDD1", "reagent no.": 2, "G2 robust z-score": -0.914, "G2 cells, % of GMNN control": -3.46}
{"gene knocked down": "RHBDD1", "reagent no.": 3, "G2 robust z-score": -1.08, "G2 cells, % of GMNN control": -4.66}
{"gene knocked down": "LTAP1", "reagent no.": 1, "G2 robust z-score": "5.38 (active)", "G2 cells, % of GMNN control": 40.8}
{"gene knocked down": "LTAP1", "reagent no.": 2, "G2 robust z-score": -0.298, "G2 cells, % of GMNN control": 0.868}
{"gene knocked down": "LTAP1", "reagent no.": 3, "G2 robust z-score": -0.832, "G2 cells, % of GMNN control": -2.89}
{"gene knocked down": "CCDC112", "reagent no.": 1, "G2 robust z-score": 1.8, "G2 cells, % of GMNN control": 15.6}
{"gene knocked down": "CCDC112", "reagent no.": 2, "G2 robust z-score": 0.752, "G2 cells, % of GMNN control": 8.26}
{"gene knocked down": "CCDC112", "reagent no.": 3, "G2 robust z-score": -0.25, "G2 cells, % of GMNN control": 1.21}
